Consider 16 targets from the supplement of paper PMC12067093, “Discovery and optimisation of a covalent ligand for TRIM25 and its application to targeted protein ubiquitination” (Chemical Science, 2025).

The chains behind the UniProt entries cited, without tags or fusion partners. Where a name states a change or a piece, a line headed by the entry shows the natural chain unless it says otherwise.
UniProt Q9H9C1: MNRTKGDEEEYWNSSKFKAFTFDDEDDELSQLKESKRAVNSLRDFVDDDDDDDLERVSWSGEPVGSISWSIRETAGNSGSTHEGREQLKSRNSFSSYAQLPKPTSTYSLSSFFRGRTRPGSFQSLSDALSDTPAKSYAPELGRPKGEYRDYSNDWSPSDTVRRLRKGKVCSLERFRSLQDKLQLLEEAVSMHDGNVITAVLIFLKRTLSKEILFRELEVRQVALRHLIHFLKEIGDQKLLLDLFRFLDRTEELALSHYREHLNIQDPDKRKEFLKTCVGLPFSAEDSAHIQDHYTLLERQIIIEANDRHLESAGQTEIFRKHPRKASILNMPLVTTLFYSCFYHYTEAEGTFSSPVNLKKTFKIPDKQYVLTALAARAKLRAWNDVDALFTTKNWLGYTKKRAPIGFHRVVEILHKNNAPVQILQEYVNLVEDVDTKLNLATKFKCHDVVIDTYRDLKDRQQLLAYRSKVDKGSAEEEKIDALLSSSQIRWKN
UniProt P46939: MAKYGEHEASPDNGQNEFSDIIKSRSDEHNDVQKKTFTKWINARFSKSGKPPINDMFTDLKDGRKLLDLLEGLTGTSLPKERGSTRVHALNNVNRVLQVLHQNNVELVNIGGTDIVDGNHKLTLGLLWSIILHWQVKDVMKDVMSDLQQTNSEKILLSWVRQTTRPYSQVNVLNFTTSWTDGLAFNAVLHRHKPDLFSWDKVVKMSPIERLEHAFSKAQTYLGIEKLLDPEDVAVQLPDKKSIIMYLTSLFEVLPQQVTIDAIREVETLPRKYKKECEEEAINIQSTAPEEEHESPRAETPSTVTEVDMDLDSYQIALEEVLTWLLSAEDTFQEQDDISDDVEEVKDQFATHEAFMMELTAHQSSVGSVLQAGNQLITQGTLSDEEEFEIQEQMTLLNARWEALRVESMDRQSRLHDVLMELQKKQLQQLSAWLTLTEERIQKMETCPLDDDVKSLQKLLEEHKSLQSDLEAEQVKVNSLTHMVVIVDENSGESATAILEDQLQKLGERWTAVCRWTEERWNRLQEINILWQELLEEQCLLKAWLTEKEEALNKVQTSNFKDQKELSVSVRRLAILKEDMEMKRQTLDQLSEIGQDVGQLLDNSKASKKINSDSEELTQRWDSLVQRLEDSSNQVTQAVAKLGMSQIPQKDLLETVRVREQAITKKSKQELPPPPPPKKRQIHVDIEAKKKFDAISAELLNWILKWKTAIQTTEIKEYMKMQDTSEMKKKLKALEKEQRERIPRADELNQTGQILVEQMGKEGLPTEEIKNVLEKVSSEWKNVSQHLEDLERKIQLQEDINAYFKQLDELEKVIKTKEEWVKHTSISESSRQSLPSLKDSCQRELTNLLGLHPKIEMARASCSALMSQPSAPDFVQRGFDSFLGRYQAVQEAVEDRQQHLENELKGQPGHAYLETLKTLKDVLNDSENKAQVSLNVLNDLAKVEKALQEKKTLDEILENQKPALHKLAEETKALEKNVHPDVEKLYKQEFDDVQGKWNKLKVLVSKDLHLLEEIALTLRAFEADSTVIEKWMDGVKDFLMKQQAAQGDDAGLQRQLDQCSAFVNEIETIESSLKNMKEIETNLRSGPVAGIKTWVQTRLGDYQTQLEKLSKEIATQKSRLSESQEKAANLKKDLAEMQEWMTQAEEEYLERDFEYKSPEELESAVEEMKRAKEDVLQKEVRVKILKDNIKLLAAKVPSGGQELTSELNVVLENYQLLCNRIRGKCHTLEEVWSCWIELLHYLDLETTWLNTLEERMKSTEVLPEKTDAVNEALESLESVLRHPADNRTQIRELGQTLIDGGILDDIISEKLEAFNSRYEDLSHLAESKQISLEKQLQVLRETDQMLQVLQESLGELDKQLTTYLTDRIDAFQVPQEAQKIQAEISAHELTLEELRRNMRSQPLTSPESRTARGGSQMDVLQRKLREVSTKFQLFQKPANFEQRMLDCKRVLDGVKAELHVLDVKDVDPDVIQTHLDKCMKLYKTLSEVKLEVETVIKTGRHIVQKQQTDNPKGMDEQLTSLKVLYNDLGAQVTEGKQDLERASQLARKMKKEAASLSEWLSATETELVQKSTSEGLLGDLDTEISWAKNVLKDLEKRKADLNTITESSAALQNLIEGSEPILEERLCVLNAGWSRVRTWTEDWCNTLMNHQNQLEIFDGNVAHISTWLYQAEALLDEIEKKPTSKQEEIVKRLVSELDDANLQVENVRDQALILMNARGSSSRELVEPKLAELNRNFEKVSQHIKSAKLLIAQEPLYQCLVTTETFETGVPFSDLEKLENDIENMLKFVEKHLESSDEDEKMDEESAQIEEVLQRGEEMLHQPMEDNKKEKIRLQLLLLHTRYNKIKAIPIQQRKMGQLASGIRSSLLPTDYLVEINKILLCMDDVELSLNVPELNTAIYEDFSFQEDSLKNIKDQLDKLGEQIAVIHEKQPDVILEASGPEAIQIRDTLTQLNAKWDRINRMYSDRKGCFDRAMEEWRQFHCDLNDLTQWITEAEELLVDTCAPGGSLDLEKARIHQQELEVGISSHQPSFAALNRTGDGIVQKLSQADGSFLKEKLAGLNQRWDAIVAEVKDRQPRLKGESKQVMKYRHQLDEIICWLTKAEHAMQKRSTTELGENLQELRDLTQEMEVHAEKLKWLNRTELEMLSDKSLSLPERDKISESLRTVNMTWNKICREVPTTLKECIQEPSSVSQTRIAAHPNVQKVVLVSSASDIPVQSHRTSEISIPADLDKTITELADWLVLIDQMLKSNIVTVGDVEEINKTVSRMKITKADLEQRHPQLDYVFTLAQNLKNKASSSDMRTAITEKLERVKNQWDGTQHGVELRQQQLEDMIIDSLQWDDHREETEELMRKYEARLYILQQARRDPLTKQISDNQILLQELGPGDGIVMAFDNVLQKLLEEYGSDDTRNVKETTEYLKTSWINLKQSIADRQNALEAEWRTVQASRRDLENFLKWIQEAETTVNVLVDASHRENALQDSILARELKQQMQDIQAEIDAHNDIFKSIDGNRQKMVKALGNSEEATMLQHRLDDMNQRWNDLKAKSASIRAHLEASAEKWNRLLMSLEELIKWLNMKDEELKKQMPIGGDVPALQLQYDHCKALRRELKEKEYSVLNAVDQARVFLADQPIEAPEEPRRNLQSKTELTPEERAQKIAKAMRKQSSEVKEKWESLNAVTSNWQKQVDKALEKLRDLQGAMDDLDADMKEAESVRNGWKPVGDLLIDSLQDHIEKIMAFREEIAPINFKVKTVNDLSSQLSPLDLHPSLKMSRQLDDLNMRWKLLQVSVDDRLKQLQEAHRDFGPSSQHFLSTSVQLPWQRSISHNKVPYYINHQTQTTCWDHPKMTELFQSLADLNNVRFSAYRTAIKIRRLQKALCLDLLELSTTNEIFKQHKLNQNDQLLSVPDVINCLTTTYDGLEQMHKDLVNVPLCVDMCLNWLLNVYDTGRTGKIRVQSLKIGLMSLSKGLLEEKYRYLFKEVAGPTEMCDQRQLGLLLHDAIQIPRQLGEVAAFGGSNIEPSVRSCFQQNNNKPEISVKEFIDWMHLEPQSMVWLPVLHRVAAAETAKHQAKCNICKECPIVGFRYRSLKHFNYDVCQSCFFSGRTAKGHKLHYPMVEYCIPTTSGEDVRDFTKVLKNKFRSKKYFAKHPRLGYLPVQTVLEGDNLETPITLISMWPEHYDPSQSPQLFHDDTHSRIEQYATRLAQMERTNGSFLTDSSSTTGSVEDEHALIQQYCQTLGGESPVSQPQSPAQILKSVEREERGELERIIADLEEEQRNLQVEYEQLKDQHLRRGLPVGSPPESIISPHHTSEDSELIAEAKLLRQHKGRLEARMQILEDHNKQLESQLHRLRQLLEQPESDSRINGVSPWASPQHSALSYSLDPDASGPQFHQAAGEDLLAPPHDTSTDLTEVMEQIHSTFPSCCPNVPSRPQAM
UniProt Q8NBZ7: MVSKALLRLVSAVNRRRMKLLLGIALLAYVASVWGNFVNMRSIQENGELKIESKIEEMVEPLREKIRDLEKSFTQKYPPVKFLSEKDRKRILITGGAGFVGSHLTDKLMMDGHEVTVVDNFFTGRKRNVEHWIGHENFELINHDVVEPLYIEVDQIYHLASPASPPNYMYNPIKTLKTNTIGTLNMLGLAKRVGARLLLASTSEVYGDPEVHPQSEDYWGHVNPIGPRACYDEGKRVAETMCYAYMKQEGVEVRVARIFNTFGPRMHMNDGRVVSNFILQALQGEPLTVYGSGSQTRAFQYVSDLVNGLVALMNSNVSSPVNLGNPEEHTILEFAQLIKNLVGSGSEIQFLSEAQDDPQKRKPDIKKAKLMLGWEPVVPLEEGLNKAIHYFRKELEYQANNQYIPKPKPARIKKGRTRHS
UniProt Q99986: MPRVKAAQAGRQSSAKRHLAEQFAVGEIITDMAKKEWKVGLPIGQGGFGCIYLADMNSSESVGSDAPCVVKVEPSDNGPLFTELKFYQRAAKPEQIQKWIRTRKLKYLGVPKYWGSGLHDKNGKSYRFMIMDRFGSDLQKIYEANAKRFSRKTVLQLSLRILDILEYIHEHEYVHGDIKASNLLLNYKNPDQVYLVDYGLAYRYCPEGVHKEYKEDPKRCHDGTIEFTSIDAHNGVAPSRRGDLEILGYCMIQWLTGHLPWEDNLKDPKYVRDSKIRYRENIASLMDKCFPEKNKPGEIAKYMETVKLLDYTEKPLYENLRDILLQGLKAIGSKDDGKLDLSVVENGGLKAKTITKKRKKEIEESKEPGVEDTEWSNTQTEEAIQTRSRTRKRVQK
UniProt Q9UK41: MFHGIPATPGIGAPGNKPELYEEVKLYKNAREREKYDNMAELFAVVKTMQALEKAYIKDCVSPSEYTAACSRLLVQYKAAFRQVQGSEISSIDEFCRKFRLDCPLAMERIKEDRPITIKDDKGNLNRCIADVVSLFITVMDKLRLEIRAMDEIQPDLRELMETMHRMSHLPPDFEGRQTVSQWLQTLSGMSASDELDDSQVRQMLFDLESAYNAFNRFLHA
UniProt Q9NRW7: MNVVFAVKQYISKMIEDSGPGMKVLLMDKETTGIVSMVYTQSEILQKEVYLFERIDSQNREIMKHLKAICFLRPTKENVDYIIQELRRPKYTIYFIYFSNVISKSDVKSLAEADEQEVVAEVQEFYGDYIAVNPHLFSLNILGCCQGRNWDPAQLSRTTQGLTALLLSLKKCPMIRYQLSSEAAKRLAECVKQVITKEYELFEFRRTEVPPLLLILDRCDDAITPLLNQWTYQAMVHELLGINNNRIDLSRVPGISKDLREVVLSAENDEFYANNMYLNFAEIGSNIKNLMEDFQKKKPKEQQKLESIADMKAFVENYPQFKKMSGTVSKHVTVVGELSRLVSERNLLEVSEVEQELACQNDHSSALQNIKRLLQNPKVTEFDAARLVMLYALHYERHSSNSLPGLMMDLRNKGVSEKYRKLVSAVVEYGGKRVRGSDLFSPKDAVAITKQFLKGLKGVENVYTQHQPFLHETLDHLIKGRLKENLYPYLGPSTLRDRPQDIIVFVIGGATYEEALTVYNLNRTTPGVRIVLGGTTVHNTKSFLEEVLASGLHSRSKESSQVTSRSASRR
UniProt Q9UKW4: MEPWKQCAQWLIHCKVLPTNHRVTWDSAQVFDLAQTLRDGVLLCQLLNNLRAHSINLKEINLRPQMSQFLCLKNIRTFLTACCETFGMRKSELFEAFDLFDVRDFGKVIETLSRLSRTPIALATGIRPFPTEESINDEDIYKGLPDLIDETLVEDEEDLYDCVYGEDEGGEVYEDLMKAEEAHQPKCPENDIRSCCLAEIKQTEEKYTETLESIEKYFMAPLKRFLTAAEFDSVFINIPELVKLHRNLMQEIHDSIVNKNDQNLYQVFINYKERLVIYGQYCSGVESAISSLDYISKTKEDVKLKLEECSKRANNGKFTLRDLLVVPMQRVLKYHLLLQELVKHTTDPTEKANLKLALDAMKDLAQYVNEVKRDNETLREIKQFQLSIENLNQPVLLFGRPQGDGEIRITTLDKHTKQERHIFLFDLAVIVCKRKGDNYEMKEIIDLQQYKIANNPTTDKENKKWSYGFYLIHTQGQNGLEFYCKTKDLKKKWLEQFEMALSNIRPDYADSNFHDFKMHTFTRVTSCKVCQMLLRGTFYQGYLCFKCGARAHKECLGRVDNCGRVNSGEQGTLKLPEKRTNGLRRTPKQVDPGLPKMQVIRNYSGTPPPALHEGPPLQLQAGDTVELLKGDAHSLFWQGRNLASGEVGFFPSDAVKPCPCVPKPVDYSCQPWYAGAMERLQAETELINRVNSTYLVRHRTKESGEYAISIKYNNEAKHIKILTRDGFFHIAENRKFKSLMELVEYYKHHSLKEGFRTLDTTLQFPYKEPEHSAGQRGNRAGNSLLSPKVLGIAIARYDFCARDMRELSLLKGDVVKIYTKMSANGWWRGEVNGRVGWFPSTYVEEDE

This is one part of the list.
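Also: competitive profiling in live THP-1 cells: cysteine peptides tagged with an iodoacetamide desthiobiotin (IA-DTB) probe, intensity after compound treatment relative to DMSO-treated cells.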

Compound in this assay: Cc1cc(ccc1-c1ccccc1)C(=O)N1CCCN(CC1)C(=O)CCl [compound 10]
The assay can be described thus: probe-labelled cysteine peptide fold change vs DMSO (competition) (log2 fold change); higher = less target engagement (more negative = stronger competition). The conditions noted are these: 10 µM; THP-1; incubation time: 4 h.
Regarding “VIPAS39_Q9H9C1_446_CHDVVIDTYR (UniProt Q9H9C1)”, the “probe-labelled cysteine peptide fold change” value stood at 0.117. The same measure for “VCPIP1_Q96JH7_469+472_CLLCGALSELHVPPEWLAPGGK (UniProt Q96JH7)”: -0.12. As to “VPS11_Q9H270_568_GLCTDYRPSLEGR (UniProt Q9H270)”, the “probe-labelled cysteine peptide fold change” value was -0.077.

In the case of “UTRN_P46939_1218_VPSGGQELTSELNVVLENYQLLCNR (UniProt P46939)”, the “probe-labelled cysteine peptide fold change” value turned out to be 0.0375.

With “VPS13A_Q96RL7_582_CIIEAEPLEIIYDAR (UniProt Q96RL7)”, the “probe-labelled cysteine peptide fold change” value came to 0.185. To “UXS1_Q8NBZ7_230_ACYDEGK (UniProt Q8NBZ7)” belongs -0.116. For the target “VRK1_Q99986_220_RCHDGTIEFTSIDAHNGVAPSR (UniProt Q99986)”, the “probe-labelled cysteine peptide fold change” value was -0.347. To “VPS28_Q9UK41_96_QVQGSEISSIDEFCR (UniProt Q9UK41)” belongs 0.0424. For “VPS45_Q9NRW7_359_NLLEVSEVEQELACQNDHSSALQNIKR (UniProt Q9NRW7)”, the “probe-labelled cysteine peptide fold change” value was -0.165. Regarding “VAV3_Q9UKW4_7_QCAQWLIHCK (UniProt Q9UKW4)”, the “probe-labelled cysteine peptide fold change” value was found to be 0.0775.

Turning to “VARS2_Q5ST30_549_QLWWGHQIPAYLVVEDHAQGEEDCWVVGR (UniProt Q5ST30)”, the “probe-labelled cysteine peptide fold change” value is 0.149. With “VPS28_Q9UK41_103_FRLDCPLAMER (UniProt Q9UK41)”, the “probe-labelled cysteine peptide fold change” value was -0.0279. To “VPS41_P49754_332_GFQENECR (UniProt P49754)” belongs -0.18; to “UTRN_P46939_1627_LCVLNAGWSR (UniProt P46939)”, 0.0181. To “WASHC5_Q12768_21_IVSCGNAIIAELLR (UniProt Q12768)” belongs -0.116; to “VIRMA_Q69YN4_557_CHFYEVLSEIKR (UniProt Q69YN4)”, 0.0494.
